Structures can show the parent of a compound that is named as a salt. The list shows a part of the results. Many values rest on one well or one pass, so single values are uncertain.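 Primary human fetal astrocytes engulfed labelled rat cortical synaptosomes, measured as a red/green ratio corrected for calcein live-cell signal and scaled to the plate median. Toxicity meant calcein falling over 30%; decreased phagocytosis meant below 70% of median above 5 µM.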
Columns and labels:
Conditions in all cases: 24 h
Human fetal astrocytes [1] = assay: loss of total cells relative to no-compound high-control median (toxicity); higher = more toxic (fewer cells)
Human fetal astrocytes [2] = assay: as above; remark: listed apart in the source
Human fetal astrocytes [3] = assay: synaptosome phagocytosis (pHrodo/calcein intensity ratio) relative to plate median of data wells; higher = more phagocytosis
Human fetal astrocytes [4] = assay: as above; remark: listed apart in the source

Structure (SMILES) | loss of total cells (Human fetal astrocytes [1]; 1.39 µM) [%] | loss of total cells (Human fetal astrocytes [1]; 2.78 µM) [%] | loss of total cells (Human fetal astrocytes [1]; 5.56 µM) [%] | loss of total cells (Human fetal astrocytes [1]; 11.11 µM) [%] | loss of total cells (Human fetal astrocytes [1]; 22.22 µM) [%] | loss of total cells (Human fetal astrocytes [2]; 1.39 µM) [%] | loss of total cells (Human fetal astrocytes [2]; 2.78 µM) [%] | loss of total cells (Human fetal astrocytes [2]; 5.56 µM) [%] | loss of total cells (Human fetal astrocytes [2]; 11.11 µM) [%] | loss of total cells (Human fetal astrocytes [2]; 22.22 µM) [%] | synaptosome phagocytosis (Human fetal astrocytes [3]; 1.39 µM) [%] | synaptosome phagocytosis (Human fetal astrocytes [3]; 2.78 µM) [%] | synaptosome phagocytosis (Human fetal astrocytes [3]; 5.56 µM) [%] | synaptosome phagocytosis (Human fetal astrocytes [3]; 11.11 µM) [%] | synaptosome phagocytosis (Human fetal astrocytes [3]; 22.22 µM) [%] | synaptosome phagocytosis (Human fetal astrocytes [4]; 1.39 µM) [%] | synaptosome phagocytosis (Human fetal astrocytes [4]; 2.78 µM) [%] | synaptosome phagocytosis (Human fetal astrocytes [4]; 5.56 µM) [%] | synaptosome phagocytosis (Human fetal astrocytes [4]; 11.11 µM) [%] | synaptosome phagocytosis (Human fetal astrocytes [4]; 22.22 µM) [%]
CNC[C@H](O)c1ccc(O)c(O)c1 [(-)-Epinephrine bitartrate] | 2.1 | -5.1 | 9.1 | -11.2 | 8.8 | 18.1 | -14.6 | 13.9 | -1.4 | 30.1 | 101 | 102 | 108 | 98.8 | 90.2 | 114 | 102 | 112 | 73.4 | 124
CC[N+](C)(C)c1cccc(O)c1 [Edrophonium chloride] | -5.4 | -8.5 | -14.8 | -6.7 | -24.8 | -13.3 | -10.7 | 6.3 | -10.9 | 5.7 | 90.4 | 112 | 106 | 93.6 | 102 | 93.9 | 108 | 97.8 | 107 | 83.8
CS(=O)(=O)Nc1ccc([N+](=O)[O-])cc1Oc1ccccc1 [Nimesulide] | -29.9 | -27.6 | 2.3 | 9.5 | 0.9 | 22 | 14.8 | 4.3 | -5.4 | 21.2 | 109 | 131 | 104 | 104 | 80 | 103 | 72.7 | 87.5 | 112 | 117
O=c1c(-c2ccc(O)cc2)coc2cc(O)cc(O)c12 [Genistein] | 12.1 | -2.6 | 11.5 | -4 | 11.2 | -6.9 | -5.3 | 30.5 | -14.2 | -1.9 | 94.3 | 89.2 | 137 | 73.7 | 112 | 111 | 92.3 | 121 | 99.8 | 84.2
Nc1ncn([C@@H]2O[C@H](CO)[C@@H](O)[C@H]2O)c(=O)n1 [5-azacytidine] | -1.1 | -20.2 | -2.3 | -26.5 | 13.2 | -12.1 | -38.1 | 6.8 | 39 | -3.4 | 106 | 90.8 | 134 | 118 | 104 | 96.9 | 104 | 115 | 125 | 113
CN1CCC(=C2c3ccccc3C=Cc3ccccc32)CC1 [Cyproheptadine hydrochloride] | -18.7 | -10.5 | -10.6 | -4.9 | 0.4 | -18.5 | -2 | 37.4 | 47.7 | 11.5 | 72.7 | 101 | 121 | 111 | 98.7 | 69.7 | 84.6 | 96.5 | 111 | 113
CN(C)CCOC(c1ccccc1)c1ccccc1 [Diphenhydramine hydrochloride] | 7.9 | -22.2 | -16.5 | -2.2 | 12 | -6.2 | -42.4 | -25.1 | -6.6 | -13.7 | 122 | 105 | 134 | 58.4 | 71.1 | 115 | 87.8 | 128 | 90.9 | 110
COC(=O)C1=C(C)NC(C)=C(C(=O)OCCN(C)Cc2ccccc2)C1c1cccc([N+](=O)[O-])c1 (stereo not given) [Nicardipine hydrochloride] | -20.4 | 0.5 | -6.1 | -10.5 | 0.9 | -19.9 | -14.9 | 0.3 | -14.1 | -1.1 | 70.6 | 53.2 | 91.5 | 66.1 | 53.4 | 77.1 | 95.1 | 103 | 87.3 | 47.3
NCCCS(=O)(=O)O [3-Amino-1-propanesulfonic acid sodium] | -20.6 | -14.7 | -37.3 | -4.9 | 15.4 | -11.5 | 0.4 | 4.4 | 6.8 | 8.9 | 88.3 | 129 | 120 | 110 | 134 | 85.1 | 102 | 106 | 105 | 117
CCCN(CCC)CCc1cccc2c1CC(=O)N2 [Ropinirole hydrochloride] | -9 | -2.1 | 4.5 | -5 | -17.3 | -27.4 | -23.8 | -9.9 | -0.3 | 0.3 | 108 | 123 | 119 | 89.3 | 127 | 125 | 106 | 103 | 80.2 | 92.1
O=C1CCC(N2C(=O)c3ccccc3C2=O)C(=O)N1 (racemic) [(±)-Thalidomide] | -14.6 | -20.1 | -13.5 | 6.5 | 1.6 | -43.5 | -13.5 | 20.5 | 25.2 | 20.2 | 106 | 123 | 126 | 104 | 138 | 126 | 125 | 116 | 110 | 106
NCCc1c[nH]cn1 [Histamine dihydrochloride] | -5.4 | -20.5 | 0.8 | 10.3 | 3.2 | 2.7 | -18 | -25.1 | 6.1 | 15.5 | 92.6 | 111 | 119 | 123 | 100 | 101 | 123 | 122 | 139 | 133
CC(=O)CCCCn1c(=O)c2c(ncn2C)n(C)c1=O [Pentoxifylline] | -28 | -7.7 | 14.6 | 5.7 | 12.1 | 30.1 | 0 | -30.5 | 32.3 | -7 | 101 | 87.6 | 72.1 | 114 | 40.7 | 68.6 | 104 | 103 | 128 | 109
O=C(O)C1=CCNCC1 [Isoguvacine hydrochloride] | -13.8 | -29.1 | -4.1 | -13 | -4 | 9.7 | 19.1 | 20.3 | 7.1 | 9.8 | 109 | 93.3 | 131 | 150 | 115 | 128 | 82.6 | 109 | 124 | 117
CCCNCC(O)COc1ccccc1C(=O)CCc1ccccc1 (stereo not given) [Propafenone hydrochloride] | -18.5 | 8.6 | 3.3 | -6.7 | 25.2 | -44 | -35.7 | -4.5 | -23.4 | 17.6 | 94.3 | 90 | 85 | 112 | 84.6 | 87.5 | 95.9 | 93.6 | 86.2 | 77.4
OC(CCN1CCCCC1)(c1ccccc1)C1CCCCC1 (stereo not given) [Trihexyphenidyl hydrochloride] | -10.2 | -12.9 | -9 | -1.9 | -2.5 | 6.2 | -5.1 | -9.1 | -13.5 | 20.4 | 99 | 106 | 117 | 88 | 95.4 | 97.5 | 92.9 | 98.6 | 82.3 | 91.6
Cc1nc2ccccn2c(=O)c1CCN1CCC(C(=O)c2ccc(F)cc2)CC1 [Pirenperone] | -4.7 | -13.5 | -8.4 | -18.8 | -14.8 | 1.6 | -46.8 | 19.9 | 10.8 | 6.5 | 114 | 92.7 | 104 | 80.4 | 77.8 | 62 | 90.7 | 104 | 109 | 105
C[N+](C)(C)CCCCCC[N+](C)(C)C [Hexamethonium dichloride] | -1.3 | -6 | 3.3 | -21.1 | 0 | 11.9 | 1.1 | 10.1 | 5.4 | 0 | 88.6 | 79.4 | 83.9 | 154 | 151 | 89.5 | 107 | 102 | 90.9 | 108
NCCCCC(=O)O [5-Aminovaleric acid hydrochloride] | -2.2 | -4.5 | -6.9 | -10.3 | -4.9 | 10.5 | -6.9 | 11.6 | 1.3 | 11.4 | 117 | 106 | 96.1 | 87.1 | 134 | 115 | 136 | 87.6 | 94.6 | 104
O=c1c(O)c(-c2ccc(O)cc2O)oc2cc(O)cc(O)c12 [Morin] | -10.9 | 4.1 | 15.5 | -3.8 | 23.4 | -13.1 | -9 | 3.7 | 10.8 | -2.2 | 135 | 100 | 84.6 | 116 | 82.2 | 104 | 119 | 95.5 | 100 | 125
O=c1c(-c2ccc(O)cc2)coc2cc(O)ccc12 [Daidzein] | -0.4 | 1.7 | -19.8 | 8.5 | -15.2 | 35.1 | 10 | -26.7 | 50.3 | 29.3 | 151 | 71.1 | 96.2 | 135 | 128 | 109 | 136 | 130 | 93.9 | 126
Cc1nnc(SCC2=C(C(=O)O)N3C(=O)[C@@H](NC(=O)Cn4cnnn4)[C@H]3SC2)s1 [Cefazolin sodium] | -10.6 | -13.2 | -23.5 | -9.4 | 12.4 | 22.8 | -2.7 | -12.2 | 41.9 | -16.7 | 141 | 60.5 | 53.8 | 112 | 122 | 119 | 122 | 91.5 | 104 | 130
CN1CCN(CCCN2c3ccccc3Sc3ccc(C(F)(F)F)cc32)CC1 [Trifluoperazine dihydrochloride] | -15.2 | -33.2 | 0.6 | 18 | 22.2 | 27 | 2.4 | -18.1 | 8.4 | 51.4 | 45.7 | 53.2 | 49.5 | 34.2 | 8 | 87.6 | 99.9 | 82.8 | 65.2 | 41.9
CC1=C(CC(=O)O)c2cc(F)ccc2/C1=C\c1ccc([S+](C)[O-])cc1 (stereo not given) [Sulindac] | -20.8 | -16.5 | -2.8 | -18.8 | -27.2 | 5.6 | -5.8 | -6.3 | 15.3 | 37.4 | 117 | 106 | 79.5 | 102 | 132 | 88.1 | 105 | 112 | 92.6 | 116
NC1(C(=O)O)CC1 [1-Aminocyclopropanecarboxylic acid hydrochloride] | 5.1 | 6.9 | -8.8 | 6.7 | 10.9 | -9 | 5.4 | 5.9 | 20.3 | 2.2 | 113 | 104 | 109 | 121 | 102 | 93.1 | 118 | 118 | 98.9 | 102

Single values from the entries so far:
For synaptosome phagocytosis (Human fetal astrocytes [4]; 11.11 µM) [%], NCCCCC(=O)O [5-Aminovaleric acid hydrochloride] shows 94.6
For synaptosome phagocytosis (Human fetal astrocytes [3]; 2.78 µM) [%], O=C(O)C1=CCNCC1 [Isoguvacine hydrochloride] shows 93.3
